PubChem BioAssay
The list shows a part of the results. Shown are side measurements of this screen, not its main read-out; they come without a call. The list favours compounds with an active or inconclusive main result.

Assay: reducers of endogenous Her2 protein level, primary screen, SKBR3 breast tumor cells, AlphaScreen, ATP viability (AID 461);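 further: percent of carrier control wells set as 100% viability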
Details: 18-24 h, measured here: SKBR3 viability, ATP luminescence, at 10 µM

Row | SMILES | viability
1 | Cc1ccc(-c2nnc3c4ccccc4c(C)nn23)cc1NC(=O)c1ccco1 | 81.5%
2 | COc1ccc(CCNc2oc(COc3ccc(F)cc3)nc2C#N)cc1 | 164%
3 | COc1ccc(-c2nnnn2C)cc1S(=O)(=O)NCc1ccccc1 | 93.5%
4 | COc1cc(C(=O)N2CCCC(c3nc(-c4cccs4)no3)C2)cc(OC)c1OC (stereo unspecified) | 90.5%
5 | CNCCCC12CCC(c3ccccc31)c1ccccc12 | 47.5%
6 | CNCCCC1c2ccccc2C=Cc2ccccc21 | 82%
7 | C=CCOc1ccc(C2/C(=C(\O)c3c(C)[nH]c(C(=O)OC)c3C)C(=O)C(=O)N2CCN(C)C)cc1 (stereo unspecified) | 95%
8 | CCC(=O)OC1(C#CCOc2ccc(OC)cc2)CCN(C)CC1 | 94%
9 | O=C(c1cc(-c2cccc(O)c2)on1)N1CCN(C(c2ccccc2)c2ccccc2)CC1 | 74%
10 | CC(C)[C@H](NC(=O)OC(C)(C)C)c1nnc(S(=O)(=O)Cc2c(F)cccc2Cl)o1 | 108%
11 | CCOC(=O)c1[nH]c2ccc(F)cc2c1NC(=O)C(C)N1CCc2cc(OC)c(OC)cc2C1 (stereo unspecified) | 99%
12 | Cc1ccc2c(c1)NC(=O)C(CC(=O)NCCCN1CCN(c3cc(Cl)ccc3C)CC1)O2 (stereo unspecified) | 75.5%
13 | CC(C)N=c1cc2n(-c3ccc(Cl)cc3)c3ccccc3nc-2cc1Nc1ccc(Cl)cc1 | 102%
14 | COc1ccc(-c2nnc(SCC(=O)Nc3sc4c(c3C#N)CCC4)n2CC2CCCO2)cc1 (stereo unspecified) | 89%
15 | Cc1cc(C)nc(SC2=CS(=O)(=O)c3ccccc32)n1 | 102%
16 | COC(=O)c1nc2n(n1)C(c1ccc(OC)c(OC)c1)C(C(=O)OC1CCCCC1)=C(C)N2 (stereo unspecified) | 67%
17 | CCOC(=O)c1cnc2c(OC)cccc2c1N1CCN(c2ccc(OC)cc2)CC1 | 124%
18 | Cc1cc(=O)oc2cc(OCC#N)ccc12 | 112%

Reformatted in markdown: eight of the compounds above

| Row | SMILES | viability |
| --- | --- | --- |
| 11 | CCOC(=O)c1[nH]c2ccc(F)cc2c1NC(=O)C(C)N1CCc2cc(OC)c(OC)cc2C1 (stereo unspecified) | 99% |
| 12 | Cc1ccc2c(c1)NC(=O)C(CC(=O)NCCCN1CCN(c3cc(Cl)ccc3C)CC1)O2 (stereo unspecified) | 75.5% |
| 13 | CC(C)N=c1cc2n(-c3ccc(Cl)cc3)c3ccccc3nc-2cc1Nc1ccc(Cl)cc1 | 102% |
| 14 | COc1ccc(-c2nnc(SCC(=O)Nc3sc4c(c3C#N)CCC4)n2CC2CCCO2)cc1 (stereo unspecified) | 89% |
| 15 | Cc1cc(C)nc(SC2=CS(=O)(=O)c3ccccc32)n1 | 102% |
| 16 | COC(=O)c1nc2n(n1)C(c1ccc(OC)c(OC)c1)C(C(=O)OC1CCCCC1)=C(C)N2 (stereo unspecified) | 67% |
| 17 | CCOC(=O)c1cnc2c(OC)cccc2c1N1CCN(c2ccc(OC)cc2)CC1 | 124% |
| 18 | Cc1cc(=O)oc2cc(OCC#N)ccc12 | 112% |

Going on with the list:

Row | SMILES | viability
19 | Cc1cc(=O)n(CCO)c(O)c1C#N | 81.5%
20 | CC(=N\O)/C(CN(C)C)=N/O | 97%
21 | CCOc1ccccc1NC(=O)CCSc1nc2n[nH]c(C)c2c(=N)n1-c1ccccc1Cl | 56.5%
22 | c1cc(C(c2nnnn2C2CCCC2)N2CCOCC2)ccn1 (stereo unspecified) | 96.5%
23 | Cc1ccc(C(=O)Nc2ccc(Cl)cn2)cc1S(=O)(=O)N1CCOCC1 | 90%
24 | COC(=O)c1ccccc1NC(=O)Cn1c(-c2nonc2N)nc2ccccc21 | 70.5%
25 | O=C(NCc1ccccc1)C1CCCN(S(=O)(=O)c2cccnc2)C1 (stereo unspecified) | 92%
26 | Cc1ccc2c(c1)C(N1CCCC1=O)CC(c1ccco1)N2 (stereo unspecified) | 108%
27 | CCOC(=O)C1CCN(C(=O)COc2ccc(S(=O)(=O)NC(C)C)cc2Cl)CC1 | 99.5%
28 | O=S1(=O)Nc2c(ccc3cccnc23)-c2ccccc21 | 122%
29 | CN(C)CCCN1c2ccccc2Sc2ccccc21 | 66.5%
30 | CCN(CC)CCCNc1oc(-c2cccc(Cl)c2)nc1C#N | 113%
31 | O=C(Nc1ccccc1-c1nc2ccccc2o1)c1ccc2c(c1)OCCO2 | 112%
32 | O=C(CC(SCCO)c1ccc2c(c1)OCO2)c1ccco1 (stereo unspecified) | 77.5%
33 | Cc1ccc(-n2nc3cc(Cl)c(NC(=O)c4ccco4)cc3n2)cc1 | 116%
34 | COc1ccc(CCn2c(=N)c(C(=O)NCc3ccco3)cc3c(=O)n4ccccc4nc32)cc1 | 73%
35 | OC(CCN1CCCC1)(c1ccccc1)C1CCCCC1 (stereo unspecified) | 93%
36 | COc1ccc(OC)c(S(=O)(=O)Nc2ccc(O)c3ccccc23)c1 | 6%
